Experimental data: PubChem BioAssay AID504786 (Drosophila RNAi Screening Center, 2011)
Assay: 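Positive regulators of HIF-driven reporter output in Drosophila cells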 (primary screen). System: Drosophila S2 cells with a stable HIF luciferase reporter. Reagents: long dsRNA against Drosophila genes, about 0.2 µg dsRNA per well of a 384-well plate. Time to read-out: three days of knock-down, then 20 h of DFO before reading. Treatment: desferrioxamine (DFO) at 100 µM, an iron chelator that mimics hypoxia, for 20 h. Detection: 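HIF reporter luminescence in cells given 100 µM DFO for 20 h, using the mouse ldh-a hypoxia-response element, scored as per-plate z-scores; higher means greater loss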. Scale: z-score: higher = stronger loss of HIF reporter signal.
The deposit covers about 21,000 reagents; this is a random part of those that have a named target and a result. 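Primary screen; positive scores mean lost reporter signal, so the sign may be inverted from the usual convention.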 Not all columns of the deposit are shown.

What did the screen give for Bap170 (Brahma associated protein 170kD) [DRSC04964]?
z-score, replicate 1: -0.2

With CG17005 [DRSC02556], what does the deposit list?
z-score, replicate 1: -0.4

How did the screen score Fem-1 [DRSC07322]?
z-score, replicate 1: -0.4

With dpr8 (defective proboscis extension response 8) [DRSC19406], what was measured?
z-score, replicate 1: -0.3

How did the screen score dpr8 (defective proboscis extension response 8) [DRSC19600]?
z-score, replicate 1: -0.4

How did the screen score dpr8 (defective proboscis extension response 8) [DRSC19938]?
z-score, replicate 1: -0.4

For dpr8 (defective proboscis extension response 8) [DRSC19939], what does the deposit list?
z-score, replicate 1: -0.4

How did the screen score S-Lap4 (Sperm-Leucylaminopeptidase 4) [DRSC10957]?
z-score, replicate 1: -0.3

In a second layout: results already given.
dpr8 (defective proboscis extension response 8) [DRSC19600]
- z-score, replicate 1: -0.4

dpr8 (defective proboscis extension response 8) [DRSC19938]
- z-score, replicate 1: -0.4

Additional reagents follow.
With CG14050 [DRSC18594], what was measured?
z-score, replicate 1: -0.2

How did the screen score CG33796 [DRSC09417]?
z-score, replicate 1: -0.2

How did the screen score CG2076 [DRSC19832]?
z-score, replicate 1: -0.2

For lolal (lola like) [DRSC06948], what does the deposit list?
z-score, replicate 1: -0.2

For CG15818 [DRSC02505], what was measured?
z-score, replicate 1: -0.3

For Mst98Cb (Male-specific RNA 98Cb) [DRSC16750], what does the deposit list?
z-score, replicate 1: -0.5

With CG30373 [DRSC05081], what was measured?
z-score, replicate 1: -0.2

With Cortactin [DRSC16612], what was measured?
z-score, replicate 1: -0.2
